The values below come from article PMC12222027, “In situ structure of a bacterial flagellar motor at subnanometre resolution reveals adaptations for increased torque” (Nature Microbiology, 2025).

Amino acid sequences for entries named in this document (tags omitted).
UniProt A0A6F9L7Y3: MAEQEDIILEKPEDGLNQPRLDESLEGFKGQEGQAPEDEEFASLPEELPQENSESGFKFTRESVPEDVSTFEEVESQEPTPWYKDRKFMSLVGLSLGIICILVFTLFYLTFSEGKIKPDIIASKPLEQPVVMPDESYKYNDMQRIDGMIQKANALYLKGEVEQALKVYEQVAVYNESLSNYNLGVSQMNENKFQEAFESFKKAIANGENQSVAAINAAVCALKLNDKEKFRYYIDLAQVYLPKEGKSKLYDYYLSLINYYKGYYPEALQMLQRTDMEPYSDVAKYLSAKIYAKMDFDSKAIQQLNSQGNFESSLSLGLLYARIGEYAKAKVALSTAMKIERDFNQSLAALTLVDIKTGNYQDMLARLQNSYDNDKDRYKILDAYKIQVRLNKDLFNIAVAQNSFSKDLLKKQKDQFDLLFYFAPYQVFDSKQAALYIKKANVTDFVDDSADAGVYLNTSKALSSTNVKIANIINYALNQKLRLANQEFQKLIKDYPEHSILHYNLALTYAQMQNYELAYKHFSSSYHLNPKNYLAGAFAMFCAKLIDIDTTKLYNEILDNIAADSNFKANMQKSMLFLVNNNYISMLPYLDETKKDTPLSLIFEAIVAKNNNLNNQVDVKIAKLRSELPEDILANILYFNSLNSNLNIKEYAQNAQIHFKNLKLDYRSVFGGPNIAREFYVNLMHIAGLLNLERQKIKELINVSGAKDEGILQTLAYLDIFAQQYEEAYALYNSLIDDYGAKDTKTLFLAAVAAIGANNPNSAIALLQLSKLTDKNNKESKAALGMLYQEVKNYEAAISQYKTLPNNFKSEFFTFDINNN

The target of the assay is PflB (proximal disk rim, C. jejuni 81-176, in the motor in situ) (C. jejuni 81-176 (endogenous in minicells)). Put plainly: cryo-EM structure; in situ single-particle analysis of motors in C. jejuni ΔflhG ΔflaAB minicells; C17 focused refinement of the periplasmic scaffold and first basal disk ring (7.9 Å); AlphaFold2 models docked or flexibly fitted into the map.

No constants are given. Whether binding was seen depends on the method and setting. Some binding calls cover weakened binding; strength is not graded here.

In the case of “PflB (proximal disk rim, C. jejuni 81-176, in the motor in situ) (from UniProt A0A6F9L7Y3 1-820)”, the binding entry was “binds”.
